Test systems include Cytoglobin (human); D-aspartate (human); DAO (human); DAP3 (human); DBI (human); DBNDD1 (human); DBNDD2 (human); DC2 (human); DCI (human); DCPS (human); DCTD (human); DCTN2 (human); DCTN3 (human); DCUN1D3 (human).
Test in all cases: protein microarray (ProtoArray v5.0), streptavidin-Alexa Fluor 647
Conditions in all cases: 3'-biotin; 20 mM Tris (pH 7.5), 5 mM MgCl2, 100 mM KCl, 0.1% Tween-20, A/T-rich and random oligonucleotide blockers; temperature not stated; high values mean tight binding

Assay [1] concerns Cytoplasmic dynein 1 heavy chain 1 (human).
Assay [2] has as its system Cytosol aminopeptidase (human).
Assay [3] has as its system Cytosolic non-specific dipeptidase (human).
For assay [4], the system named is Cytosolic phospholipase A2 gamma (human).
For assay [5], the system named is DAZ-associated protein 2 (human).
Assay [6] relates to DCN1-like protein 1 (human).

This is one part of the list.

In the case of “GGGAGGCTGAGGCAGG [G4-1 biotinylated (PQS2)]”, the binding signal is -0.335 z-score in the assay on Cytoglobin (human); -0.349 z-score in [1]; -0.311 z-score in [2]; -0.353 z-score in assay [3]; -0.308 z-score in [4]; -0.254 z-score with D-aspartate (human). In addition, the binding signal was -0.316 z-score in the assay on DAO (human); -0.298 z-score in the assay on DAP3 (human); -0.339 z-score in assay [5]; -0.325 z-score with DBI (human); -0.341 z-score in the assay with DBNDD1 (human); -0.356 z-score in the assay on DBNDD2 (human). Moreover, the binding signal in the assay on DC2 (human) is -0.273 z-score; with DCI (human), -0.298 z-score; in [6] it was -0.335 z-score; in the assay with DCPS (human), -0.336 z-score; in the assay with DCTD (human), -0.331 z-score; with DCTN2 (human), -0.356 z-score. Moreover, the binding signal in the assay on DCTN3 (human) is -0.337 z-score; with DCUN1D3 (human) it was -0.366 z-score.
